In patent US20170369592A1, “NOVEL ANTI-FIBROBLAST ACTIVATION PROTEIN (FAP) ANTIBODIES AND USES DERIVED THEREOF” (Mabimmune Diagnostics AG, priority 2015, published 2017):
These are yes or no findings as the source states them, for the method shown. Some binding calls cover weakened binding; strength is not graded here.

Sequences of proteins named here, by UniProt entry; tags and fusion partners are left off. A change or cut given only in a name is not applied to a line headed by its entry. Residues count along the entry.
UniProt Q12884: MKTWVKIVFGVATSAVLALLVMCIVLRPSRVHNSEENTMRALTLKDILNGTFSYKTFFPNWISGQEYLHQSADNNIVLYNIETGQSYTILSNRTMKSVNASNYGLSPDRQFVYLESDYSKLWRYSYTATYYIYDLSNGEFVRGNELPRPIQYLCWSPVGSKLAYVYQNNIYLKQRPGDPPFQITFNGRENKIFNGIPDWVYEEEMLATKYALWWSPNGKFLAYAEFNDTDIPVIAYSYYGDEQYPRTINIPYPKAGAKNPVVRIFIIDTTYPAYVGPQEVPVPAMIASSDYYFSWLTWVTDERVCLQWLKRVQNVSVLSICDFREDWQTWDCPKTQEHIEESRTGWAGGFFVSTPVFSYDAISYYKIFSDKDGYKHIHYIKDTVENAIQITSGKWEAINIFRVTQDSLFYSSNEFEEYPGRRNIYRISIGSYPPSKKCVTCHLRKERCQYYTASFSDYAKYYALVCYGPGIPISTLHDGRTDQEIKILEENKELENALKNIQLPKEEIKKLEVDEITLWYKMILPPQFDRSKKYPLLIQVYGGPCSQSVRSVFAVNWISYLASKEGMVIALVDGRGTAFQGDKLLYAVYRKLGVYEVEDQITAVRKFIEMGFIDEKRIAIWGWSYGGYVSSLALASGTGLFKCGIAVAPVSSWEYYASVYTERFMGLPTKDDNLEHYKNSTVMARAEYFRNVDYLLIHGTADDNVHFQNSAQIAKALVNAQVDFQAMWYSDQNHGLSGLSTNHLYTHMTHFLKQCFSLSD
recombinant human Fibroblast Activation Protein (FAP): residues 26-760 of Q12884

Assays:
[1] = target: recombinant human Fibroblast Activation Protein (FAP) (human) (UniProt Q12884); test: direct ELISA (FIG. 2B)
[2] = target: recombinant human Fibroblast Activation Protein (FAP) (human) (UniProt Q12884); test: capture ELISA (FIG. 2A)
[3] = target: recombinant human Fibroblast Activation Protein (FAP) (human) (UniProt Q12884); test: ELISA, capture and direct formats
[4] = target: T1, FAP peptide 131 (521-…-535) (human); test: pepscan image (FIG. 4A), antibody at 1 µg/ml
T1 sequence (peptide): KMILPPQFDRSKKYP

[5] = target: T2, FAP peptide 132 (525-…-539) (human); test: pepscan image (FIG. 4A), antibody at 1 µg/ml
T2 sequence (peptide): PPQFDRSKKYPLLIQ

[6] = target: T3, FAP peptide fragment 521-…-539 (human); test: truncation peptides spotted on a nitrocellulose membrane
T3 sequence (peptide): KMILPPQFDRSKKYPLLIQ

[7] = target: T4, truncation peptide spot 23 (full length peptide of spot 21 shortened by 2 amino acids from the C-terminus); test: as above
T4 sequence (peptide, by the resolver, Synthetic peptide spotted on a nitrocellulose membrane.): KMILPPQFDRSKKYPLL

[8] = target: T5, truncation peptide spot 24 (full length peptide of spot 21 shortened by 3 amino acids from the C-terminus); test: as above
T5 sequence (peptide, by the resolver, Synthetic peptide spotted on a nitrocellulose membrane.): KMILPPQFDRSKKYPL

[9] = target: recombinant human Fibroblast Activation Protein (FAP) (human) (UniProt Q12884); test: ELISA, enzyme captured via its tag, HRP-labelled NI-206.82C2 (FIG. 7B)
[10] = target: T1, FAP peptide 131 (521-…-535) (human); test: pepscan, 15-mer peptides on a nitrocellulose membrane, antibody at 1 µg/ml
[11] = target: T2, FAP peptide 132 (525-…-539) (human); test: as above
[12] = target: recombinant human Fibroblast Activation Protein (FAP) (human) (UniProt Q12884); test: ELISA, NI-206.82C2 at 20, 4 and 0.8 nM on captured His-tagged FAP (FIG. 7A)
[13] = target: transmembrane human FAP on FAP-HEK293 cells (human) (UniProt Q12884); test: flow cytometry, Cy5 labelled antibody on FAP-HEK293 cells at pH 7.4, 6.8 and 6.4
[14] = target: transmembrane human FAP on FAP-HEK293 cells (human) (UniProt Q12884); test: flow cytometry, Cy5 labelled antibody on FAP-HEK293 cells, ΔMFI = MFI 82C2 minus MFI 43A11
[15] = target: recombinant human Fibroblast Activation Protein (FAP) (human) (UniProt Q12884); test: sandwich ELISA, F19 as capture antibody, HRP-labelled 82C2 as detection antibody (FIG. 17C)
[16] = target: recombinant human Fibroblast Activation Protein (FAP) (human) (UniProt Q12884); test: sandwich ELISA, F19 coated as capture antibody, rhFAP titrated, HRP-labelled 82C2 as detection antibody
[17] = target: recombinant human Fibroblast Activation Protein (FAP) (human) (UniProt Q12884); test: sandwich ELISA, F19 coated as capture antibody, rhFAP standard titrated, HRP-labelled 82C2 as detection antibody
[18] = target: recombinant human Fibroblast Activation Protein (FAP) (human) (UniProt Q12884); test: capture ELISA, His-tagged rhFAP captured with coated anti-His antibody, detection with HRP goat anti-human antibody
[19] = target: transmembrane human FAP on FAP-HEK293 cells (human) (UniProt Q12884); test: flow cytometry, Cy5-labelled antibody on FAP-HEK293 cells, delta MFI = MFI NI-206.82C2 minus MFI 43A11, PBS at pH 6.4
[20] = target: transmembrane human FAP on FAP-HEK293 cells (human) (UniProt Q12884); test: flow cytometry, Cy5-labelled antibody on FAP-HEK293 cells, delta MFI = MFI NI-206.82C2 minus MFI 43A11, PBS at pH 6.8
[21] = target: transmembrane human FAP on FAP-HEK293 cells (human) (UniProt Q12884); test: flow cytometry, Cy5-labelled antibody on FAP-HEK293 cells, delta MFI = MFI NI-206.82C2 minus MFI 43A11, PBS at pH 7.4
[22] = target: recombinant human Fibroblast Activation Protein (FAP) (human) (UniProt Q12884); test: ELISA, tagged rhFAP captured on the plate with an anti-tag antibody, HRP-labelled NI-206.82C2, TMB, OD 450 nm [continued) B]

- binding [1]: binds
- binding [2]: binds
- binding [3]: binds
- binding [4]: binds
- binding [5]: binds
- binding [6]: binds
- binding [7]: binds
- binding [8]: binds
- binding [9]: binds
- binding [10]: binds
- binding [11]: binds
- binding [12]: binds
- binding [13]: binds
- binding [14]: binds
- binding [15]: binds
- binding [16]: binds
- binding [17]: binds
- binding [18]: binds
- binding [19]: binds
- binding [20]: binds
- binding [21]: binds
- binding [22]: binds
B1: NI-206.82C2 (antibody, V domains shown)
VH: QVQLQQSGPGLVKPSQTLSLTCAISGDSVSSNSVTWNWIRQSPSRGLEWLGRTYYRSKWYNDYAVSVKGRITINPDTSKNQFYLQLKSVTPEDAAVYYCARDSSILYGDYWGQGTLVTVSS
VL: QAVLTQPSSLSASPGASASLTCTLPSGINVGTYRIFWFQQKPGSPPQYLLSYKSDSDNHQGSGVPSRFSGSKDASANAGILLISGLQSEDEADYYCMIWHSSAWVFGGGTKLTVL
notes: Labelled with HRP or Cy5 in some assays; also called HRP-labelled 82C2
